No constants are given. Whether binding was seen depends on the method and setting. For some assays here: Binding seen in cells or lysates may run through a third protein. Some results given as binding are weak or reduced against the parent protein; the word gives no strength. For some assays here: Tags and fused reporters may be left off the sequences shown.
T1: OSM34-GFP (Arabidopsis thaliana) (UniProt P50700)
T1 sequence: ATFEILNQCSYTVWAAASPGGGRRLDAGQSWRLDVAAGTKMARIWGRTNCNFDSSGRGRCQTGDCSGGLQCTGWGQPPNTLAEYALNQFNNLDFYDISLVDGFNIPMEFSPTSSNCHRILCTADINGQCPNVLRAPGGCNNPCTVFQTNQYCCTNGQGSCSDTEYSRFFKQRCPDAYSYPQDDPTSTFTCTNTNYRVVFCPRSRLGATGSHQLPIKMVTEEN

T2: SKP2A (1-360) (Arabidopsis thaliana) (UniProt Q9LPL4)
T2 sequence: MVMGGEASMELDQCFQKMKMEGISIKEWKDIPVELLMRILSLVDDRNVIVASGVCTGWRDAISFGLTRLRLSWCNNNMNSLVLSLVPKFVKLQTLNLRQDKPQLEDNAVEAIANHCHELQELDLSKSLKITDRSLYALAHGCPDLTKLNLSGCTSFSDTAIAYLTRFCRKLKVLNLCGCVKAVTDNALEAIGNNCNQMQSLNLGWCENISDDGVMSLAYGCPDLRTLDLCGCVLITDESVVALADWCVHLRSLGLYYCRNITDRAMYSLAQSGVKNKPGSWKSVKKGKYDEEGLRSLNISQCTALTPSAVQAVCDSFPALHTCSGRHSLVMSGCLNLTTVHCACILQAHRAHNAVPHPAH


Columns and labels:
[1] = target: T1, OSM34-GFP (Arabidopsis thaliana); experiment: co-IP; total protein extracts of Arabidopsis transgenic lines expressing either OSM34-GFP or SKP2A-HA mixed; anti-GFP-Sepharose beads, 4 °C overnight; 150 mM NaCl, 50 mM Tris pH 7.5, 0.01% NP-40, 10 mM MgCl2, 10% glycerol; blot with anti-HA
[2] = target: T2, SKP2A (1-360) (Arabidopsis thaliana); experiment: two-hybrid; OSM34 (42-244) in pGADT7, SKP2A (1-360) in pGBKT7, co-transformed into yeast AH109; growth on QDO media (-Ade/-His/-Leu/-Trp) containing 10 mM 3-AT

| binding [1] | binding [2] | Binder |
| --- | --- | --- |
| binds | – | SKP2A-HA (protein, UniProt Q9LPL4 1-360) MVMGGEASMELDQCFQKMKMEGISIKEWKDIPVELLMRILSLVDDRNVIVASGVCTGWRDAISFGLTRLRLSWCNNNMNSLVLSLVPKFVKLQTLNLRQDKPQLEDNAVEAIANHCHELQELDLSKSLKITDRSLYALAHGCPDLTKLNLSGCTSFSDTAIAYLTRFCRKLKVLNLCGCVKAVTDNALEAIGNNCNQMQSLNLGWCENISDDGVMSLAYGCPDLRTLDLCGCVLITDESVVALADWCVHLRSLGLYYCRNITDRAMYSLAQSGVKNKPGSWKSVKKGKYDEEGLRSLNISQCTALTPSAVQAVCDSFPALHTCSGRHSLVMSGCLNLTTVHCACILQAHRAHNAVPHPAH |
| – | binds | N-terminal-deleted OSM34 (42-244) (domain or fragment, UniProt P50700 42-244) GGGRRLDAGQSWRLDVAAGTKMARIWGRTNCNFDSSGRGRCQTGDCSGGLQCTGWGQPPNTLAEYALNQFNNLDFYDISLVDGFNIPMEFSPTSSNCHRILCTADINGQCPNVLRAPGGCNNPCTVFQTNQYCCTNGQGSCSDTEYSRFFKQRCPDAYSYPQDDPTSTFTCTNTNYRVVFCPRSRLGATGSHQLPIKMVTEEN |

Reference: publication PMC8347876
